Taken from: PubChem BioAssay AID504793 (Drosophila RNAi Screening Center, 2011)
The screen tested about 23,000 reagents; below is an unselected part of those with a known target gene and a result. Of all reagents, 62 (0.27%) were called active. 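Calls come from follow-up tests whose scores are not deposited, so confirmed genes may have low counts here; counts are not normalised per plate.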 The raw values are shown without normalisation.

Assay: 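Whole-genome screen for parts of the DNA damage checkpoint at G2/M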 (primary screen)
Cells: Drosophila S2R+ cells
Reagents: long dsRNA against Drosophila genes, about 0.25 µg dsRNA per well
Timing: 4 days of dsRNA, then 4 hours of drug before read-out
Treatment: doxorubicin 0.5 µM for 4 hours to cause double-strand breaks, in cells also given a low, harmless dose of dsRNA against nbs to sensitise the assay
Measurement: 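Mitotic index as the number of phospho-histone H3-positive cells in each well following doxorubicin, given as raw counts without normalisation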
Direction: mitotic cells: higher = more cells in mitosis, weaker G2 arrest
Active means: 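a call needs confirmation in secondary tests, with other dsRNAs and a check of mitotic timing without damage, not just a high primary count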
Meaning of the calls: active = confirmed in follow-up tests; inactive = not confirmed

Gene | dsRNA | mitotic cells, replicate 1 | Call
Src64B | DRSC08700 | 4 | inactive
Src64B | DRSC36619 | 5 | inactive
Tfb4 | DRSC00675 | 7 | inactive
Tfb4 | DRSC26946 | 2 | inactive
shu | DRSC04484 | 5 | inactive
shu | DRSC27390 | 5 | inactive
CG10137 | DRSC02014 | 4 | inactive
CG10137 | DRSC02015 | 8 | inactive
CG10137 | DRSC27098 | 4 | inactive
lin-52 | DRSC18106 | 11 | inactive
CG18748 | DRSC15385 | 4 | inactive
Jhedup | DRSC07173 | 7 | inactive
sxc | DRSC04911 | 6 | inactive
CG13026 | DRSC09906 | 2 | inactive
Plp | DRSC10006 | 2 | inactive
Plp | DRSC10333 | 5 | inactive
Plp | DRSC10700 | 2 | inactive
ago | DRSC08463 | 4 | inactive
CG17027 | DRSC10238 | 9 | inactive
CG17027 | DRSC25560 | 5 | inactive
sli | DRSC07684 | 12 | inactive
sli | DRSC29578 | 4 | inactive
RagC-D | DRSC07239 | 6 | inactive
Tep2 | DRSC02679 | 3 | inactive
Tep2 | DRSC03451 | 1 | inactive
Rpt3R | DRSC16501 | 7 | inactive
Rpt3R | DRSC25067 | 11 | inactive
Obp99b | DRSC16264 | 6 | inactive
Obp99b | DRSC27754 | 3 | inactive
CG42449 | DRSC18084 | 11 | inactive
CG42449 | DRSC25316 | 8 | inactive
dpr20 | DRSC08265 | 4 | inactive
CG30095 | DRSC07175 | 9 | inactive
Sk1 | DRSC19774 | 12 | inactive
egr | DRSC06233 | 5 | inactive
CG2211 | DRSC08559 | 6 | inactive
CG4907 | DRSC15673 | 9 | inactive
Myt1 | DRSC11228 | 16 | active
Myt1 | DRSC30071 | 8 | active
wun | DRSC07719 | 4 | inactive
lncRNA:CR32385 | DRSC22966 | 13 | inactive
CG5357 (retired record) | DRSC04497 | 4 | inactive
CG5357 (retired record) | DRSC25149 | 8 | inactive
CSN7 | DRSC06807 | 17 | inactive
CSN7 | DRSC06808 | 7 | inactive

Records listed above marked active (2):
Gene | dsRNA | mitotic cells, replicate 1 | Call
Myt1 | DRSC11228 | 16 | active
Myt1 | DRSC30071 | 8 | active
